# Measurements from patent US10385085B2, “Crystal forms of sialic acid or salt or solvate thereof” (Ultragenyx Pharmaceutical Inc., priority 2015, dated 2019).
# Some entries share one result that the patent states for a list of compounds.
# Assay: Gravimetric Vapour Sorption (GVS) with post-GVS XRPD
# Format: physicochemical
# Description: Approximately 10-20 mg of sample was placed into a mesh vapour sorption balance pan and loaded into an IGASorp Moisture Sorption Analyser balance by Hiden Analytical. The sample was subjected to a ramping profile from 40-90% relative humidity (RH) at 10% increments, maintaining the sample at each step until a stable weight had been achieved (98% step completion). After completion of the sorption cycle, the sample was dried using the same procedure to 0% RH, and finally taken back to the starting point of 40% RH. The weight change during the sorption/desorption cycles were plotted, allowing for the hygroscopic nature of the sample to be determined.
smiles,measurement,value
"CC(=O)N[C@H]1[C@H]([C@H](O)[C@H](O)CO)OC(O)(C(=O)O)C[C@@H]1O (some centres unmarked) [Form 3, N-acetylneuraminic acid]",Relative humidity of humid environment giving conversion to Form 1,> 60 % relative humidity
"CC(=O)N[C@H]1[C@H]([C@H](O)[C@H](O)CO)OC(O)(C(=O)O)C[C@@H]1O (some centres unmarked) [Form 2, N-acetylneuraminic acid]",Relative humidity of humid environment giving conversion to Form 1,> 60 % relative humidity
